Laboratory results published in the supplement of paper PMC10331698.
± gives the standard deviation of the averaged measurements. Most entries show no effect beyond the scatter of the controls.

Tests used:
Assay in all cases: level (log10 ratio to DMSO vehicle control); higher = higher biomarker level / cell amount than vehicle control
[1] = compound: O=C(O)C(F)(F)C(F)(F)C(F)(F)F [Perfluorobutanoic acid]; details: 2200 nM; in DMSO
Experimental: (§1)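 BioMAP Diversity Plus panel of 12 human primary cell co-culture systems (3C, 4H, LPS, SAg, BT, BF4T, BE3C, CASM3C, HDF3CGF, KF3CT, MyoF, Mphg). Compounds were added 1 h before stimulation and left for 24 h (MyoF 48 h; BT 72 h for soluble read-outs or 6 d for IgG). Biomarkers were read by ELISA, cytotoxicity by SRB, PBMC viability and proliferation by Alamar Blue. Each well value was divided by the mean of 8 DMSO control wells on the same plate and log10 transformed; duplicate blinded samples were tested at 4 concentrations.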

[2] = compound: NC(=O)C(F)(F)C(F)(F)C(F)(F)C(F)(F)C(F)(F)C(F)(F)C(F)(F)F [Perfluorooctanamide]; details: 2200 nM; in DMSO
Experimental: as §1

[3] = compound: O=C(O)C(F)(F)C(F)(F)OC(F)(F)F [Perfluoro-3-methoxypropanoic acid]; details: 2200 nM; in DMSO
Experimental: as §1

[4] = compound: O=P(O)(O)CCC(F)(F)C(F)(F)C(F)(F)C(F)(F)C(F)(F)C(F)(F)C(F)(F)C(F)(F)F [((Perfluorooctyl)ethyl)phosphonic acid]; details: 2200 nM; in DMSO
Experimental: as §1

[5] = compound: FC(F)(F)C(F)(F)C(F)(F)C(F)(F)C(F)(F)C(F)(F)C(F)(F)CCI [1-Iodo-1H,1H,2H,2H-perfluorononane]; details: in DMSO
Experimental: as §1

[6] = compound: FC(F)(F)C(F)(F)C(F)(F)C(F)(F)C(F)(F)C(F)(F)C(F)(F)I [1-Iodopentadecafluoroheptane]; details: in DMSO
Experimental: as §1

[7] = compound: O=C(O)C(F)(F)OC(F)(F)C(F)(F)OC(F)(F)C(=O)O [Perfluoro-3,6-dioxaoctane-1,8-dioic acid]; details: 2200 nM; in DMSO
Experimental: as §1

[8] = compound: O=C(O)C(F)(F)C(F)(F)C(F)(F)C(F)(F)C(F)(F)C(F)(F)C(F)(F)C(F)(F)C(F)(F)C(F)(F)F [Perfluoroundecanoic acid]; details: in DMSO
Experimental: as §1

[9] = compound: O=C(O)C(F)(F)OC(F)(F)C(F)(F)OC(F)(F)C(F)(F)C(F)(F)C(F)(F)F [Perfluoro-3,6-dioxadecanoic acid]; details: 2200 nM; in DMSO
Experimental: as §1

[10] = compound: OCC(F)(F)C(F)(F)C(F)(F)C(F)(F)C(F)(F)C(F)(F)C(F)(F)C(F)(F)C(F)(F)C(F)(F)C(F)(F)F [11:1 Fluorotelomer alcohol]; details: in DMSO
Experimental: as §1

[11] = compound: FC(F)C(F)(F)COCC1CO1 [((2,2,3,3-Tetrafluoropropoxy)methyl)oxirane]; details: 2200 nM; in DMSO
Experimental: as §1

[12] = compound: O=C(O)C=CC(F)(C(F)(F)F)C(F)(F)F [3-(Perfluoroisopropyl)-2-propenoic acid]; details: in DMSO
Experimental: as §1

[13] = compound: OCCC(F)(F)C(F)(F)C(F)(F)C(F)(F)C(F)(F)C(F)(F)C(F)(F)C(F)(F)F [8:2 Fluorotelomer alcohol]; details: 2200 nM; in DMSO
Experimental: as §1

[14] = compound: O=C(O)C(F)(F)C(F)(F)F [Perfluoropropanoic acid]; details: 2200 nM; in DMSO
Experimental: as §1

[15] = compound: O=S(=O)(Cl)C(F)(F)C(F)(F)C(F)(F)C(F)(F)C(F)(F)C(F)(F)C(F)(F)C(F)(F)F [Perfluoro-1-octanesulfonyl chloride]; details: 2200 nM; in DMSO
Experimental: as §1

[16] = compound: O=C(O)C(F)(F)C(F)(F)C(F)(F)C(F)(F)C(F)(F)C(F)(F)C(F)(F)C(F)F [9-H-Perfluorononanoic acid]; details: 2200 nM; in DMSO
Experimental: as §1

[17] = compound: C=CC(=O)OCC(F)(F)C(F)(F)C(F)(F)C(F)(F)COC(=O)C=C [1H,1H,6H,6H-Perfluorohexane-1,6-diol diacrylate]; details: 2200 nM; in DMSO
Experimental: as §1

[18] = compound: C=C(C)C(=O)OCC(F)(F)C(F)(F)C(F)(F)F [2,2,3,3,4,4,4-Heptafluorobutyl methacrylate]; details: 2200 nM; in DMSO
Experimental: as §1

| Test System | level (log10) [1] | level (log10) [2] | level (log10) [3] | level (log10) [4] | level (log10) ([5]; 740 nM) | level (log10) ([5]; 2200 nM) | level (log10) ([5]; 6700 nM) | level (log10) ([5]; 20000 nM) | level (log10) ([6]; 740 nM) | level (log10) ([6]; 2200 nM) | level (log10) ([6]; 6700 nM) | level (log10) ([6]; 20000 nM) | level (log10) [7] | level (log10) ([8]; 740 nM) | level (log10) ([8]; 2200 nM) | level (log10) [9] | level (log10) ([10]; 370 nM) | level (log10) ([10]; 1100 nM) | level (log10) ([10]; 3300 nM) | level (log10) ([10]; 10000 nM) | level (log10) [11] | level (log10) ([12]; 2200 nM) | level (log10) ([12]; 6700 nM) | level (log10) ([12]; 20000 nM) | level (log10) ([12]; 60000 nM) | level (log10) [13] | level (log10) [14] | level (log10) [15] | level (log10) [16] | level (log10) [17] | level (log10) [18] |
| --- | --- | --- | --- | --- | --- | --- | --- | --- | --- | --- | --- | --- | --- | --- | --- | --- | --- | --- | --- | --- | --- | --- | --- | --- | --- | --- | --- | --- | --- | --- | --- |
| 3C:CCL2/MCP-1 | -0.0045 ± 0.0078 | 0.022 ± 0.088 | 0.0075 ± 0.047 | 0.025 ± 0.031 | 0.0195 ± 0.032 | -0.0135 ± 0.0064 | -0.005 | 0.019 ± 0.011 | -0.0025 ± 0.067 | -0.0275 ± 0.03 | -0.0175 ± 0.005 | 0.023 ± 0.027 | 0.0075 ± 0.029 | 0.0275 ± 0.077 | -0.0075 ± 0.043 | 0.019 ± 0.0085 | -0.001 ± 0.031 | -0.0005 ± 0.0064 | -0.007 ± 0.021 | 0.003 ± 0.04 | 0.021 ± 0.0085 | 0.018 ± 0.035 | 0.0025 ± 0.022 | -0.009 ± 0.0014 | 0.019 ± 0.02 | 0.0015 ± 0.018 | -0.0085 ± 0.015 | -0.003 ± 0.03 | 0.014 ± 0.027 | 0.0365 ± 0.049 | 0.004 ± 0.028 |
| 3C:CD54/ICAM-1 | -0.0245 ± 0.00071 | -0.0005 ± 0.0064 | 0.0135 ± 0.025 | 0.013 ± 0.0099 | 0.016 ± 0.023 | 0.0025 ± 0.0092 | -0.0115 ± 0.00071 | 0.0025 ± 0.016 | -0.0175 ± 0.0021 | -0.021 ± 0.0085 | -0.0115 ± 0.00071 | 0.014 ± 0.016 | 0.014 ± 0.017 | 0.003 ± 0.014 | -0.007 ± 0.016 | 0.0165 ± 0.0092 | 0.0085 ± 0.033 | 0.011 ± 0.03 | 0.0305 ± 0.028 | 0.0385 ± 0.018 | 0.0065 ± 0.012 | 0.015 ± 0.013 | -0.013 ± 0.033 | -0.0185 ± 0.025 | -0.003 ± 0.013 | -0.0035 ± 0.016 | -0.0055 ± 0.0078 | -0.0155 ± 0.0064 | 0.0105 ± 0.0035 | 0.0205 ± 0.011 | 0.005 ± 0.03 |
| 3C:CD62E/E-Selectin | -0.007 ± 0.011 | -0.0005 ± 0.013 | 0.0195 ± 0.0078 | -0.0035 ± 0.015 | -0.0045 ± 0.029 | -0.01 | -0.0135 ± 0.0035 | -0.028 ± 0.014 | 0.0165 ± 0.0021 | -0.0115 ± 0.005 | -0.0085 ± 0.00071 | -0.003 ± 0.011 | 0.013 ± 0.0085 | -0.0225 ± 0.023 | -0.021 ± 0.014 | 0.0195 ± 0.016 | 0 ± 0.031 | -0.0125 ± 0.013 | 0.008 ± 0.0028 | 0.0155 ± 0.0078 | 0.0185 ± 0.00071 | 0.0015 ± 0.0078 | -0.009 ± 0.013 | -0.031 ± 0.0085 | -0.0155 ± 0.013 | 0.0045 ± 0.046 | 0 ± 0.033 | -0.0125 ± 0.019 | -0.012 ± 0.0042 | -0.0005 ± 0.0092 | 0.002 ± 0.042 |
| 3C:CD87/uPAR | -0.011 ± 0.0071 | 0.0055 ± 0.0035 | 0.0165 ± 0.026 | 0.0475 ± 0.063 | 0.0065 ± 0.00071 | -0.0165 ± 0.0035 | 0.0105 ± 0.019 | 0.0225 ± 0.016 | -0.0115 ± 0.022 | -0.0055 ± 0.00071 | -0.0165 ± 0.018 | -0.0175 ± 0.0078 | 0.0175 ± 0.025 | 0.0015 ± 0.0021 | -0.003 ± 0.018 | 0.017 ± 0.0085 | 0.0165 ± 0.039 | -0.024 ± 0.023 | -0.013 ± 0.024 | -0.003 ± 0.011 | 0.0135 ± 0.0035 | 0.0435 ± 0.036 | 0.025 ± 0.0071 | 0.033 ± 0.038 | 0.0465 ± 0.042 | 0.007 ± 0.011 | -0.0055 ± 0.012 | 0.0065 ± 0.042 | -0.007 ± 0.0028 | 0.0265 ± 0.0064 | 0.0025 ± 0.0035 |
| 3C:CD106/VCAM-1 | -0.014 ± 0.0099 | -0.0235 ± 0.0078 | 0.009 ± 0.017 | -0.001 ± 0.0014 | -0.005 ± 0.0085 | -0.0215 ± 0.021 | -0.015 ± 0.014 | -0.0115 ± 0.0021 | -0.004 ± 0.0042 | -0.0055 ± 0.021 | -0.0165 ± 0.016 | -0.005 ± 0.011 | 0.019 ± 0.017 | -0.0135 ± 0.019 | -0.0105 ± 0.0021 | 0.004 ± 0.0057 | -0.004 ± 0.0028 | 0.008 ± 0.016 | 0.007 | 0.022 ± 0.0099 | -0.002 ± 0.018 | 0.0085 ± 0.033 | -0.002 ± 0.03 | -0.039 ± 0.037 | -0.0205 ± 0.00071 | -0.0065 ± 0.057 | -0.008 ± 0.011 | 0.0055 ± 0.0035 | -0.016 ± 0.03 | -0.0155 ± 0.0035 | 0.0135 ± 0.04 |
| 3C:CD141/Thrombomodulin | -0.0345 ± 0.079 | -0.013 ± 0.016 | 0.0075 ± 0.049 | -0.0005 ± 0.018 | -0.0035 ± 0.0078 | -0.0045 ± 0.00071 | -0.028 ± 0.0014 | -0.01 ± 0.041 | 0.0155 ± 0.019 | 0.0025 ± 0.064 | -0.0215 ± 0.071 | -0.008 ± 0.081 | 0.0175 ± 0.042 | -0.02 ± 0.057 | -0.032 ± 0.038 | -0.009 ± 0.028 | 0.004 ± 0.024 | 0.0225 ± 0.021 | 0.0705 ± 0.00071 | 0.09 ± 0.02 | -0.006 ± 0.023 | -0.005 ± 0.0085 | -0.0125 ± 0.023 | -0.006 ± 0.0057 | 0.0045 ± 0.016 | 0.039 ± 0.017 | -0.006 ± 0.014 | 0.013 ± 0.035 | 0 ± 0.024 | -0.018 ± 0.0085 | 0.0265 ± 0.015 |
| 3C:CD142/Tissue Factor | 0.0055 ± 0.039 | -0.0195 ± 0.0035 | 0.0075 ± 0.046 | 0.012 ± 0.037 | 0.026 ± 0.014 | 0.0325 ± 0.016 | 0.01 ± 0.0071 | 0.0065 ± 0.0078 | -0.015 ± 0.052 | -0.0035 ± 0.046 | -0.0085 ± 0.015 | -0.052 ± 0.076 | 0.022 ± 0.011 | -0.0375 ± 0.042 | -0.036 ± 0.021 | -0.0025 ± 0.052 | 0.019 ± 0.018 | 0.028 ± 0.024 | 0.074 ± 0.034 | 0.0865 ± 0.0092 | 0.004 ± 0.048 | -0.0115 ± 0.052 | -0.018 ± 0.065 | -0.036 ± 0.048 | 0.003 ± 0.061 | 0.0045 ± 0.1 | -0.0015 ± 0.035 | -0.0355 ± 0.036 | 0.042 ± 0.0028 | -0.0345 ± 0.053 | 0.011 ± 0.014 |
